Source: article PMC5975438
These are yes or no findings as the source states them, for the method shown. Binding seen in cells or lysates may run through a third protein. Some results given as binding are weak or reduced against the parent protein; the word gives no strength.

Protein sequences, listed by entry. Tags and fused reporters are not part of them. Lines headed by an entry give the natural chain unless they say otherwise; changes in a name come on top. Residues count along the entry.
UniProt Q63155, residues 26-1445: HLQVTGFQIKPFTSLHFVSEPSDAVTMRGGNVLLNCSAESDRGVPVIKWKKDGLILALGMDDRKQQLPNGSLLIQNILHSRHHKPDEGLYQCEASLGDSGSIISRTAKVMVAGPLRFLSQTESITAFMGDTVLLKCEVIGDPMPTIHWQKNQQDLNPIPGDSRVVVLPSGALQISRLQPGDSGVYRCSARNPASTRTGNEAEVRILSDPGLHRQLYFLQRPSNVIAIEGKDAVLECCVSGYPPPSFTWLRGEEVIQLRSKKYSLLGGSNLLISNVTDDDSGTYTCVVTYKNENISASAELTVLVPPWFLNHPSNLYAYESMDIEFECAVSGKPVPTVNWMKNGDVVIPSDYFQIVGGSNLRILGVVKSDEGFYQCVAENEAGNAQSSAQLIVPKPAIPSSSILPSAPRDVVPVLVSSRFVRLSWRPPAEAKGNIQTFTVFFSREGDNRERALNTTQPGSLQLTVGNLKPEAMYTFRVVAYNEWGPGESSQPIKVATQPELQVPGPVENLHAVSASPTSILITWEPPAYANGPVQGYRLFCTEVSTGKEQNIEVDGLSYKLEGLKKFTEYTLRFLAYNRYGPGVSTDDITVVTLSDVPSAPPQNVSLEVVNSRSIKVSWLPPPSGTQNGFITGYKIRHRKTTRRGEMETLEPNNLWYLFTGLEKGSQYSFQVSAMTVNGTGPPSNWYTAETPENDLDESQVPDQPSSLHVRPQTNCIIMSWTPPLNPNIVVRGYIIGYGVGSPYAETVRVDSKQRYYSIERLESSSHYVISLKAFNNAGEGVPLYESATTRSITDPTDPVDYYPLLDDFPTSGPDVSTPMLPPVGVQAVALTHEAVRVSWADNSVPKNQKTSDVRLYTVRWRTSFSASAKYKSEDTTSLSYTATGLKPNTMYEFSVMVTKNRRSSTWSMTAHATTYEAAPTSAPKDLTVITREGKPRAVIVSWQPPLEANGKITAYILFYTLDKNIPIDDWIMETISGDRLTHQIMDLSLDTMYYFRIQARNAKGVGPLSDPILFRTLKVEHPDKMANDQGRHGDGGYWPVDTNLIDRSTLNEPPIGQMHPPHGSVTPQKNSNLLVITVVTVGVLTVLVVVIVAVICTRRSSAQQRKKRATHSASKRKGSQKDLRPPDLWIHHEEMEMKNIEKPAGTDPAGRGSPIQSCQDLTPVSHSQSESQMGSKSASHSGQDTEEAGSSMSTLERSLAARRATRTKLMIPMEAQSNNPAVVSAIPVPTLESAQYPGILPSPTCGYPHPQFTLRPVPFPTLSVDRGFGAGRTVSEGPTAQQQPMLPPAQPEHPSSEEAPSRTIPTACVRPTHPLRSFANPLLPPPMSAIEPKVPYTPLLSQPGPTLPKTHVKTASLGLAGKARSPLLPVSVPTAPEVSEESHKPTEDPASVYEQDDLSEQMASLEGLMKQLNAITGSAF

Molecular target: Netrin-1 receptor DCC (Deleted in Colorectal Cancer) (rat (endogenous in rat cartilage)) (UniProt Q63155)
Test: co-IP; rat cartilage homogenates (400 ug protein) of sham and OA (ACLT) rats; anti-DCC antibody 1 h, protein-G agarose at 4 °C for 12 h; immunoblot with VEGF antibody; IgG as negative control

B1: Vascular endothelial growth factor (ligand, UniProt P16612 27-214)
chain: APTTEGEQKAHEVVKFMDVYQRSYCRPIETLVDIFQEYPDEIEYIFKPSCVPLMRCAGCCNDEALECVPTSESNVTMQIMRIKPHQSQHIGEMSFLQHSRCECRPKKDRTKPEKKSVRGKGKGQKRKRKKSRFKSWSVHCEPCSERRKHLFVQDPQTCKCSCKNTDSRCKARQLELNERTCRCDKPRR
binding: binds
